{"sequences": {"note": "By UniProt entry, the sequences of proteins in these tests, tags left out. Residues count along the entry.", "UniProt P09055, residues 21-798": "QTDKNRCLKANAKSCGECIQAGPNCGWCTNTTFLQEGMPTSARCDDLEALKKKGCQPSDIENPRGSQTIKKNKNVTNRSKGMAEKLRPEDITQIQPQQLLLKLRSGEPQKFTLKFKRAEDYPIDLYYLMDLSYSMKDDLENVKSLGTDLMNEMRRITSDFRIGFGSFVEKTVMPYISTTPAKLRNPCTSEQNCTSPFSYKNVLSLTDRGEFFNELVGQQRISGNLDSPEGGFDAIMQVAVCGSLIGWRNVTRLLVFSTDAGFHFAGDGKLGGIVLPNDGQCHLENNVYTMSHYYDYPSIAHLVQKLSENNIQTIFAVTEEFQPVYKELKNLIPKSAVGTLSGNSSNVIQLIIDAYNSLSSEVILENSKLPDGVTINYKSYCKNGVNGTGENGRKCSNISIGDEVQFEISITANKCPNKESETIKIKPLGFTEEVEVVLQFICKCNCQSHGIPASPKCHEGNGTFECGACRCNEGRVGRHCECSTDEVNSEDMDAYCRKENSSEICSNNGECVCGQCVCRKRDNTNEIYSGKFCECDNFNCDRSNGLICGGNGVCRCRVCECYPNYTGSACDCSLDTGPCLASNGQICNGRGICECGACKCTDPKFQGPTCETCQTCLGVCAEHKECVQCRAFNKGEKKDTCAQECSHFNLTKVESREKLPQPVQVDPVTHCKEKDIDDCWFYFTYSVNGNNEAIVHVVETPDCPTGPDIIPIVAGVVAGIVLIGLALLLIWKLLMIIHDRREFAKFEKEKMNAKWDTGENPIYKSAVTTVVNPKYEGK"}, "source": "paper PMC12313019", "about": "“Fibrotic lung ECM upregulates SDC4/integrin-αvβ1 interaction and the interfering peptide SDC4_87-131 and its derivative peptides alleviate pulmonary fibrosis” (Regenerative Biomaterials, 2025)", "target": "T1, syndecan-4 (SDC4) (mouse (endogenous in NIH3T3 and C57BL/6J lung)) (UniProt O35988)", "T1 sequence": "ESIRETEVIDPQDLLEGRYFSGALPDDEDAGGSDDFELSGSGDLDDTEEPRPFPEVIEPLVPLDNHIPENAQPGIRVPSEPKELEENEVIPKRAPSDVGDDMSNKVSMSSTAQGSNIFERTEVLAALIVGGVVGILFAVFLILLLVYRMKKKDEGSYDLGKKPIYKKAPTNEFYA", "test": "proximity ligation; Duolink PLA on NIH3T3 cells cultured on dECM-Nor or dECM-PF; antibodies against the extracellular domain of SDC4 (5G9), integrin-αv and integrin-β1; with Anti-SDC4_((93-121)) 500 ng/mL or SDC4_(87-131) 100 nM", "note": "No constants are given. Whether binding was seen depends on the method and setting. In cells and extracts the contact can be indirect. Some binding calls cover weakened binding; strength is not graded here.", "data": [{"substance": "integrin-β1 (from UniProt P09055 21-798) (receptor)", "values": [{"measurement": "binding", "result": "binds"}]}]}
